Measured values: paper PMC7819943, “Rice protein-binding microarrays: a tool to detect cis-acting elements near promoter regions in rice”
This is one part of the list.

Amino acid sequences for entries named in this document (tags omitted).
UniProt Q0JBA9, entry or part of it: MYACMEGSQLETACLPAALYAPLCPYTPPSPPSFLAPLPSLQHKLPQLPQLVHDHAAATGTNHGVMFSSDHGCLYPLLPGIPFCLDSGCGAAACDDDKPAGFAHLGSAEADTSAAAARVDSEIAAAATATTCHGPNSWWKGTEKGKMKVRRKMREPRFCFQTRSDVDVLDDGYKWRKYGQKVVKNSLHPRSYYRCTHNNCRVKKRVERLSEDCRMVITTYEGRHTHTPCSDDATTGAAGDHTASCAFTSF

Target: OsWRKY34 (Oryza sativa, UniProt Q0JBA9 1-250)
Test: protein-binding microarray (RPBM); PBS, 2% BSA, 51.3 ng/ul salmon testes DNA, 50 uM zinc acetate, 200 nM TF, 25 C, 1 h; high values mean tight binding
Conditions: protein: recombinant; tags: N-terminal polyhistidine and DsRed monomer fusion (pET32a); label: CyDye5-dUTP incorporated in the synthesized complementary strand; 3' TTTTT single-stranded linker to array surface; dsDNA, one strand shown
In short: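 A custom Agilent array was converted to double-stranded form by primer extension with Cy5-dUTP and blocked with 2% BSA. Protein at 200 nM in PBS with 2% BSA, salmon testes DNA and 50 µM zinc acetate was applied for 1 h at 25 °C, followed by washing. The proteins were polyhistidine–DsRed N-terminal fusions of transcription factors, expressed in E. coli BL21-CodonPlus and Ni–NTA-purified. The binding signal is per-feature fluorescence intensity (arbitrary units) from an Axon 4000B scanner.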

Sequence | binding signal
TCTCGTTCATCCTCTCCCTGTCAATTGTCGCGAGTCTTCTCGGAGTCACCTAGTGCAG | 8620 fluorescence intensity (a.u.)
CAGCCATAAACATTGTCCATTTGTCCTTGTAAATCAATCGCGGAGTCACCTAGTGCAG | 8270 fluorescence intensity (a.u.)
ACAGCCATGGTCGGACCGATCTTATCTGCAAACGCCCATGCGGAGTCACCTAGTGCAG | 8820 fluorescence intensity (a.u.)
TCGCACAGCATTCATTGAGGACTTCTTTTCCACTGATCCTCGGAGTCACCTAGTGCAG | 8080 fluorescence intensity (a.u.)
TTCATGCAGCTCTACGTCGCCATCTTTTGTATAGAAAATTCGGAGTCACCTAGTGCAG | 8280 fluorescence intensity (a.u.)
CATATCCCGACTTTGTGCAGTCTGTAATTGTGCTATGTTACGGAGTCACCTAGTGCAG | 8710 fluorescence intensity (a.u.)
CCAATCATCACTATTCTCCTTTACCTACTTTTACTTATCACGGAGTCACCTAGTGCAG | 8240 fluorescence intensity (a.u.)
GTTCTTGTAGTATACGTAGCTAGCTAGGTGGTGTGGTGTACGGAGTCACCTAGTGCAG | 8900 fluorescence intensity (a.u.)
TAACTTCTCAACTTTTTCACCATCTAAACACAGTCTTCATCGGAGTCACCTAGTGCAG | 8400 fluorescence intensity (a.u.)
CCTACCCTTCCCGGTAACTTATTTATCCTCCCAAATCCTCCGGAGTCACCTAGTGCAG | 9350 fluorescence intensity (a.u.)
ACATAATTAGTTTATCTCTCCTCAAGCTGGTGCATCTCTCCGGAGTCACCTAGTGCAG | 8190 fluorescence intensity (a.u.)
CTCTCTTATCTTCTCTTCTTTCTCCCTTGTGCATGCGGAGCGGAGTCACCTAGTGCAG | 10500 fluorescence intensity (a.u.)
AGATGCCTCGTGCTAGGTTTGATTGGTTGGTTGGTTGGTACGGAGTCACCTAGTGCAG | 19400 fluorescence intensity (a.u.)
ACTGCCACGCGTACGCCATGTAGACCAAAACCACCGTGGACGGAGTCACCTAGTGCAG | 8110 fluorescence intensity (a.u.)
AAATTTCTCATGGACTGTTATCTGCTTGTTCTGCTTGAAACGGAGTCACCTAGTGCAG | 9720 fluorescence intensity (a.u.)
CATCTATTCTTTTGTACTCTGTGATTTTCTATATCAATCTCGGAGTCACCTAGTGCAG | 8650 fluorescence intensity (a.u.)
AATTATTCCGGGCTTGGGACGTTGTAAAAAACATAAAATTCGGAGTCACCTAGTGCAG | 8770 fluorescence intensity (a.u.)
TACGATTTCTATTATTTCCAAATCAAATTGCCCCACTATTCGGAGTCACCTAGTGCAG | 8500 fluorescence intensity (a.u.)
CTCTCGTGTTCTCTCCCAATCTCTTCTTGCGGCGGAAGCACGGAGTCACCTAGTGCAG | 8320 fluorescence intensity (a.u.)
AGAGAAACATGTCATTATCATATACTCCTTTCATCCTATACGGAGTCACCTAGTGCAG | 8460 fluorescence intensity (a.u.)
ACATTGTTATCTACTATCTGTTTATATGGTTTTCTACTTCCGGAGTCACCTAGTGCAG | 8340 fluorescence intensity (a.u.)

Some values from the results shown.
binding signal, CATCTATTCTTTTGTACTCTGTGATTTTCTATATCAATCTCGGAGTCACCTAGTGCAG reads 8650 fluorescence intensity (a.u.)
binding signal, CTCTCTTATCTTCTCTTCTTTCTCCCTTGTGCATGCGGAGCGGAGTCACCTAGTGCAG reads 10500 fluorescence intensity (a.u.)

More entries follow:

Sequence | binding signal
AATTTCTGATTGTTTGTCAGTTCAGCGTTGATGCTGTAATCGGAGTCACCTAGTGCAG | 8510 fluorescence intensity (a.u.)
ATTTTTATTCTCTCTCTCCCGACTCCCGAGCCGTATCATCCGGAGTCACCTAGTGCAG | 8840 fluorescence intensity (a.u.)
ACACGAGCTTCTCCGCCCTCTTGTCCTTCGGTCAGCACCGCGGAGTCACCTAGTGCAG | 12000 fluorescence intensity (a.u.)
AATGTTTGACACCGTTGATTTTTTTAGCACATGTTTCACCCGGAGTCACCTAGTGCAG | 8960 fluorescence intensity (a.u.)
TTCATATACACATATAGTTTTACATATTTCATATTTTTTTCGGAGTCACCTAGTGCAG | 9360 fluorescence intensity (a.u.)
ACACTGTCTTCTCTCTCTCTCTCTCTCTCTCTCTCTGCTTCGGAGTCACCTAGTGCAG | 11900 fluorescence intensity (a.u.)
CTCCGCGCCGCGGCCGCCTCCCTCGACTCCGGCGACCACCCGGAGTCACCTAGTGCAG | 8330 fluorescence intensity (a.u.)
GTGTGTGCCTGTGTAGTACACGCTATTCTTCTTACCTTGTCGGAGTCACCTAGTGCAG | 9010 fluorescence intensity (a.u.)
AACGATTTCCTGCTGTCCTTCGTCGTTTCGTTTAGCATATCGGAGTCACCTAGTGCAG | 11600 fluorescence intensity (a.u.)
TTGGTTTTTGGTTGACAGAAGGATTTTTCTCGCCTTTTTTCGGAGTCACCTAGTGCAG | 8560 fluorescence intensity (a.u.)
TGGTTTGCATCTCTTCTTGCTCTTTGGAGGATTTACTACTCGGAGTCACCTAGTGCAG | 9510 fluorescence intensity (a.u.)
TCCTTTCTGTTTCAACCATAGGCCCATTAGGCCCACGTACCGGAGTCACCTAGTGCAG | 8850 fluorescence intensity (a.u.)
TCTCGTTGTCGTCATCATATTTGGATCTCCTATGGCATTTCGGAGTCACCTAGTGCAG | 8110 fluorescence intensity (a.u.)
CATTTTTTCGGCTTCCATCGGCCGCACTTTTGACAGCATTCGGAGTCACCTAGTGCAG | 11500 fluorescence intensity (a.u.)
CTCCTACTCGGCGCACGTCCATGTCGTCTTCATCCTCAACCGGAGTCACCTAGTGCAG | 8910 fluorescence intensity (a.u.)
GCTCTCACTCTCTCTCTAGATCTCTCTCTCTCTCCTACTGCGGAGTCACCTAGTGCAG | 9920 fluorescence intensity (a.u.)
CCCCTGCCTGCATCAACCCTCATATGTTGTCCTTGGCGAACGGAGTCACCTAGTGCAG | 10900 fluorescence intensity (a.u.)
CGTGCAACCTCAACCACTCCCACCTCTACCTTATCTCTTCCGGAGTCACCTAGTGCAG | 9010 fluorescence intensity (a.u.)
TCTGACTCCTTGCACCTCTATTGGATTTTTTTGGTCACTTCGGAGTCACCTAGTGCAG | 8030 fluorescence intensity (a.u.)
CCCAGCAACTCGTACACCTCCCGGTGCATCACAAATTCCTCGGAGTCACCTAGTGCAG | 8920 fluorescence intensity (a.u.)
GTGGCCACCGTGGGCCCCACCATTTCTAAATTAATTTTTTCGGAGTCACCTAGTGCAG | 10800 fluorescence intensity (a.u.)
